Experimental data reported in publication PMC5430726.
These are yes or no findings as the source states them, for the method shown.

Amino acid sequences for entries named in this document (tags omitted). Residues count along the entry.
UniProt Q60631, residues 155-217: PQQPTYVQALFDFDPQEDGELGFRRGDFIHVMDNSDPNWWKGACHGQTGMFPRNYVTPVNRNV

Molecular target: Grb2 C-terminal SH3 domain (SH3C), residues 155-217 (mouse) (UniProt Q60631)
Assay: cross-linking + SEC; glutaraldehyde crosslinking and size exclusion chromatography of the purified domains; both purified

binding: no binding
Substance: Grb2 C-terminal SH3 domain (SH3C), residues 155-217 (from UniProt Q60631 155-217) (domain or fragment)
